Experimental data reported in article PMC6792016.

Assays:
[1] = system: p53 WT (IVT); assay: EMSA; conditions: anti-p53 Pab421 in the binding mix; 20 mM HEPES pH 7.8, 0.5 mM EDTA, 6 mM MgCl2, 60 mM KCl, 0.008% NP-40, 1 mM DTT, 100 ng Pab421, 120 ng salmon sperm DNA, 1 ul glycerol in 20 ul; 30 min room temperature; protein translated in vitro; label: 32P
[2] = biological target: p53EE (R178E + p53EE/EE MEF nuclear extract) (Mus musculus (129Sv)) (UniProt P02340); assay: EMSA; conditions: anti-p53 Pab421 in the binding mix; 20 mM HEPES pH 7.8, 0.5 mM EDTA, 6 mM MgCl2, 60 mM KCl, 0.008% NP-40, 1 mM DTT, 100 ng Pab421, 120 ng salmon sperm DNA, 1 ul glycerol in 20 ul; 30 min room temperature; protein in an extract; label: 32P
[3] = biological target: p53 WT (p53+/+ MEF nuclear extract) (Mus musculus (129Sv knock-in background)) (UniProt P02340); assay: EMSA supershift; conditions: anti-p53 Pab421 in the binding mix, FL-393 supershift; 20 mM HEPES pH 7.8, 0.5 mM EDTA, 6 mM MgCl2, 60 mM KCl, 0.008% NP-40, 1 mM DTT, 100 ng Pab421, 120 ng salmon sperm DNA, 1 ul glycerol in 20 ul; 30 min room temperature; protein in an extract; label: 32P

GGGTAGACATGCCTAGACATGCCTAAGCTCCC (double strand) [p53 RE (consensus-like)]
binding result [1]: binds
binding result [2]: no binding
binding result [3]: binds

The exact form of at least one protein or probe is not confirmed. For part of these data: At least one result comes from cells or an extract, where the contact may be indirect. For part of these data: Negatives hold for the conditions tested. For part of these data: At least one verdict was read from the data and is not stated in words by the source.
